Reference: paper PMC11237027

By UniProt entry, the sequences of proteins in these tests, tags left out. Where a name states a change or a piece, a line headed by the entry shows the natural chain unless it says otherwise.
UniProt Q93VJ2: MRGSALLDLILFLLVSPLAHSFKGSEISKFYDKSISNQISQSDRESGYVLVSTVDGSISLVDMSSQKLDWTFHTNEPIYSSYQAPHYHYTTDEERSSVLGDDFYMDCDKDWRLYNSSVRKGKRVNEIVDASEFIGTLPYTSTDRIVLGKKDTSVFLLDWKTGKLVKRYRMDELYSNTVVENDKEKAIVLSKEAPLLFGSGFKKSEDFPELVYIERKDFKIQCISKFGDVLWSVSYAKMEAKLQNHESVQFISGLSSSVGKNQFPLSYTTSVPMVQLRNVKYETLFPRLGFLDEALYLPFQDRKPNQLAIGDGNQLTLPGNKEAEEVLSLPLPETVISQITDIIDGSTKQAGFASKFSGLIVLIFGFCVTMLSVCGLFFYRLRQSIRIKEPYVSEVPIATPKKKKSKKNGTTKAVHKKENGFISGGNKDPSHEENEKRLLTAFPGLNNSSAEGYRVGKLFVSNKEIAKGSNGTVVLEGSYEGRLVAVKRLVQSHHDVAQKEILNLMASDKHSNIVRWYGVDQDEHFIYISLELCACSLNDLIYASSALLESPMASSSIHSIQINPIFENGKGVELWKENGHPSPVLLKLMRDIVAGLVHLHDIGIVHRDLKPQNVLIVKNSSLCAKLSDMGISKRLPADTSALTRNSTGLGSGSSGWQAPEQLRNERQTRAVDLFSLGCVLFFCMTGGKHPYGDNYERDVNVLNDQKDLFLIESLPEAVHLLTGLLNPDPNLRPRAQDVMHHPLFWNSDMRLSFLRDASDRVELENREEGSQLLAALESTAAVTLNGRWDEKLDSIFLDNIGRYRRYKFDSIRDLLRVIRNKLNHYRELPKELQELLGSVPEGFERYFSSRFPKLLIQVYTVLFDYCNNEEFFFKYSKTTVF

How the values were obtained:
[1] = biological target: T1, BAP2N67S (Est-0 allele of BAP2) fused to GST at the N-terminus (Arabidopsis thaliana) (UniProt Q58FX0); assay: pull-down; GST fusions from E. coli extracts bound to glutathione agarose (30 min on ice), then incubated with E. coli protein extracts of the His-tagged proteins; equilibration buffer 125 mM Tris-HCl, 150 mM sodium chloride, pH 8.0; Western blot with anti-His and anti-GST; only the target purified
T1 sequence: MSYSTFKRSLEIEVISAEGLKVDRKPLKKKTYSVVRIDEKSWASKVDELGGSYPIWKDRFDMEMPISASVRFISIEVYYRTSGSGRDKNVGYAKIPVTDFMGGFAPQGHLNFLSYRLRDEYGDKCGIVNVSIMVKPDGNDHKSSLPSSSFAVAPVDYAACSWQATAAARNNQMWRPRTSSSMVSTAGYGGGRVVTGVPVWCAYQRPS

[2] = biological target: T2, BON-ASSOCIATED PROTEIN2 (BAP2) fused to GST at the N-terminus (Arabidopsis thaliana) (UniProt Q58FX0); assay: as above
T2 sequence: T1 sequence with S67N

binding [1]: no binding | binding [2]: binds
Substance: cytosolic region of IRE1B fused to a His6x-Tag at the C-terminal (from UniProt Q93VJ2) (domain or fragment)

Changes are numbered by the printed parent chain. Results are given in words; binding and its absence hold for the method and conditions named. Binding seen in cells or lysates may run through a third protein. For some assays here: Binding can be weak; no strength is given. Where a sequence is shown, tags or fusion partners need not be part of it.
